# Test results from paper PMC4986900.
# Amino acid sequences for entries named in this document (tags omitted).
# UniProt Q13868: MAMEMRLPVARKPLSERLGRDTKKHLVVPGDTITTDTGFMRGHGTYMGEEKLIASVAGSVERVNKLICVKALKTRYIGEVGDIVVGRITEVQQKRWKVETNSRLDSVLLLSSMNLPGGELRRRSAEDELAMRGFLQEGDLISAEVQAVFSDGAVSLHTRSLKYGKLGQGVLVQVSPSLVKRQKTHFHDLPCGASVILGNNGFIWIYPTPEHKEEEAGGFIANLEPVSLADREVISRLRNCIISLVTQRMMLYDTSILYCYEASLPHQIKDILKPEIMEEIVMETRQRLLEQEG
# UniProt Q9NQT5: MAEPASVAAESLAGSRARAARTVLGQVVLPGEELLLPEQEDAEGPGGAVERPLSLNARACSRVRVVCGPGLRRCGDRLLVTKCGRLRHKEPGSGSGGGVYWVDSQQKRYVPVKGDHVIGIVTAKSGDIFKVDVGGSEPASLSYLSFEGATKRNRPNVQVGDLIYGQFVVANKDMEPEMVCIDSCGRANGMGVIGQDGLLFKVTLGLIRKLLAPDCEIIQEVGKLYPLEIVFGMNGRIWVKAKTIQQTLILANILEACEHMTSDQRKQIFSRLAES
# UniProt Q9Y3B2: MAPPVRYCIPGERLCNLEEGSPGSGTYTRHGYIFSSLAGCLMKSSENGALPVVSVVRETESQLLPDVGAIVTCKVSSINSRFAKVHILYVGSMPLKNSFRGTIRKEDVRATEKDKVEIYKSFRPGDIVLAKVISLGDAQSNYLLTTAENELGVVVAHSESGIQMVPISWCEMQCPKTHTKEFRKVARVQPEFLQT
# UniProt Q06265: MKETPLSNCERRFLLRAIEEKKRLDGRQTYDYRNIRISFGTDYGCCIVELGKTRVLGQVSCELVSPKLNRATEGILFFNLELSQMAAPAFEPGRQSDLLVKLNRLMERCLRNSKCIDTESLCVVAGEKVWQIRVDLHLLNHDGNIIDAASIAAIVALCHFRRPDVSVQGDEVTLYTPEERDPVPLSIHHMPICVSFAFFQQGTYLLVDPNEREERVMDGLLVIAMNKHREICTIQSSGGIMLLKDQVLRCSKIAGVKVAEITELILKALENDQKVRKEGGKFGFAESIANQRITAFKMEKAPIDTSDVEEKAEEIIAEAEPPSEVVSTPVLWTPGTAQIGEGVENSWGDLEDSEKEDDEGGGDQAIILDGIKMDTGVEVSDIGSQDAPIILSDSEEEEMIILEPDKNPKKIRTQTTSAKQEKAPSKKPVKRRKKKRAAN
# UniProt Q15024: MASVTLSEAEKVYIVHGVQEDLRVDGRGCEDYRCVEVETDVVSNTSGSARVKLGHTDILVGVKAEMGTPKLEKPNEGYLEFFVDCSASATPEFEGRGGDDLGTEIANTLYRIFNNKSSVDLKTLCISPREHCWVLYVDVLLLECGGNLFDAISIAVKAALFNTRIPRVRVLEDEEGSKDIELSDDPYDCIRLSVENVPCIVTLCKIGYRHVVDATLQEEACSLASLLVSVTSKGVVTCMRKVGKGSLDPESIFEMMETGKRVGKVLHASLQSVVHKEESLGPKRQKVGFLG
# UniProt Q9NQT4: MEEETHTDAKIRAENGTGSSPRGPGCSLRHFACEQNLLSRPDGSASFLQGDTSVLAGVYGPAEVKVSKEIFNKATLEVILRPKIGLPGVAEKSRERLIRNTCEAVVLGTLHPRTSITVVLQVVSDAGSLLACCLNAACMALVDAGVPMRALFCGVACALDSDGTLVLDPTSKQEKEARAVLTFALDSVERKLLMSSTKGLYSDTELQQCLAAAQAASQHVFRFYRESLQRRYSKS
# UniProt Q5RKV6: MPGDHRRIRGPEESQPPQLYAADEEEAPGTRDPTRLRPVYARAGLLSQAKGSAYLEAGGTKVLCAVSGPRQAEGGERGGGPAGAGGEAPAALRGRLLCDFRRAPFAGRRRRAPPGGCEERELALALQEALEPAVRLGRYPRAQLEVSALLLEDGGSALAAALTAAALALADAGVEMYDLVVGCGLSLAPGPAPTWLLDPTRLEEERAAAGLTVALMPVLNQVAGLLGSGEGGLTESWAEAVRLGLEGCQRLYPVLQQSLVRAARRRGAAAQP
# Results are given in words; binding and its absence hold for the method and conditions named. In cells and extracts the contact can be indirect. These calls come from enrichment with a bait or labelling near it, and not all partners need be listed. For some assays here: No binding means not detected with the bait. Where a sequence is shown, tags or fusion partners need not be part of it.
# T1: 3xFlag-tagged EXOSC10 (human RRP6) (human) (UniProt Q01780)
# T1 sequence: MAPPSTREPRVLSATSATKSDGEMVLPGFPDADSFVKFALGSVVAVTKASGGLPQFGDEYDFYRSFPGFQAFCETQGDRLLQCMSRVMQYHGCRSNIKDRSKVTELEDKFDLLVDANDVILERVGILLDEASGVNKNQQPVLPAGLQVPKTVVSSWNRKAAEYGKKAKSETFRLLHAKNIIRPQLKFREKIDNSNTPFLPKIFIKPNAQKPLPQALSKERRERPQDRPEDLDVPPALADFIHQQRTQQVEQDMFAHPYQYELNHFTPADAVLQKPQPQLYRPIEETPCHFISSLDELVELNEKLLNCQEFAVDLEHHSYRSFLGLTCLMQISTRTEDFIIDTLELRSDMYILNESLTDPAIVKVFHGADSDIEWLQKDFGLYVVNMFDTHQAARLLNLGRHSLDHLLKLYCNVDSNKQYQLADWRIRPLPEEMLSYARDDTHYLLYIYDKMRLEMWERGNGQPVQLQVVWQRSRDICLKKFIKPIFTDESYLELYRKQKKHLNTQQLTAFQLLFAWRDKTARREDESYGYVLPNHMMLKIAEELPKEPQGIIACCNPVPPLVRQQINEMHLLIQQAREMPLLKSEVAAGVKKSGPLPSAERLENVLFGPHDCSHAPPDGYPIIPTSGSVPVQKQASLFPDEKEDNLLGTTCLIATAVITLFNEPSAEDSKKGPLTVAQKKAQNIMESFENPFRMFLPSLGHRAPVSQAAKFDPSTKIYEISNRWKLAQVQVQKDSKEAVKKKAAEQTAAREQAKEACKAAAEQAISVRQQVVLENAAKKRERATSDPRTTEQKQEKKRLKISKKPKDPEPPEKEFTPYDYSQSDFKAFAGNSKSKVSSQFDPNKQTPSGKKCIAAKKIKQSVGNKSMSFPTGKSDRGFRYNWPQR
# T2: 3xFlag-tagged EXOSC10 (human RRP6) (human), Q01780
# T2 chain: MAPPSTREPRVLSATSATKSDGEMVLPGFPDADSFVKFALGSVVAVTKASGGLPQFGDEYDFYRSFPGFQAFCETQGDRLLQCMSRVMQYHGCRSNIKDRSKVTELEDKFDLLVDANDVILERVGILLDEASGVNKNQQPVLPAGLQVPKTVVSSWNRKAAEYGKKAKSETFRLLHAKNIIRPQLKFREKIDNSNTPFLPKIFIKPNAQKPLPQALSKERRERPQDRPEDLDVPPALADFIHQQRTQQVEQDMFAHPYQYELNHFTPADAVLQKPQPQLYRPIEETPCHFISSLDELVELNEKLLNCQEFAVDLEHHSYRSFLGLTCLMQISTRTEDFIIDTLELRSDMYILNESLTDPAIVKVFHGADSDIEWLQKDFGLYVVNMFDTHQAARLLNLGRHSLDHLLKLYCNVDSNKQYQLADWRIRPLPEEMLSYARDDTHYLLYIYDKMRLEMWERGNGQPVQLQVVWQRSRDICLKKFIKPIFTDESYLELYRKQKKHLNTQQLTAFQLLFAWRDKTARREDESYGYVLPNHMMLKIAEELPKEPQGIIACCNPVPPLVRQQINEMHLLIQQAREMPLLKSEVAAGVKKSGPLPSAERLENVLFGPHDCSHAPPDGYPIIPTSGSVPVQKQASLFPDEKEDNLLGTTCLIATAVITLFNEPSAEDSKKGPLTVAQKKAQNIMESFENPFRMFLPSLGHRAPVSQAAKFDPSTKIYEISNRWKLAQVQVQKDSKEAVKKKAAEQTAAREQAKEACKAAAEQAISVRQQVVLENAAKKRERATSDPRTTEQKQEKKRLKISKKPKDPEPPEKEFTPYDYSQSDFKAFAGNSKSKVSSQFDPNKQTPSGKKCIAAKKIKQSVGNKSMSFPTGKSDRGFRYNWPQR
# How the values were obtained:
# [1] = molecular target: T1, 3xFlag-tagged EXOSC10 (human RRP6) (human); test: affinity purification with mass spectrometry; ExoI: EXOSC10-3xFlag captured on anti-Flag magnetic beads from cryomilled HEK-293 cell powder extracted in 20 mM HEPES-Na pH 7.4, 300 mM NaCl, 1% v/v Triton X-100; native elution with 3xFlag peptide; 10%-40% glycerol gradient at 4°C; SDS-PAGE and MS of peak fractions
# [2] = molecular target: T1, 3xFlag-tagged EXOSC10 (human RRP6) (human); test: affinity purification with mass spectrometry; ExoII: EXOSC10-3xFlag captured on anti-Flag magnetic beads from cryomilled HEK-293 cell powder extracted in 20 mM HEPES-Na pH 7.4, 100 mM NaCl, 5 mM CHAPS; native elution with 3xFlag peptide; eluate crosslinked with DTSSP before the glycerol gradient at 4°C (without DTSSP DIS3 dissociated during centrifugation); SDS-PAGE and MS of peak fractions
# [3] = molecular target: T2, 3xFlag-tagged EXOSC10 (human RRP6) …; test: as above; settings: remark: other sources report otherwise
# [4] = molecular target: T1, 3xFlag-tagged EXOSC10 (human RRP6) (human); test: condition: only extraction in 300 mM NaCl, 1% v/v Triton X-100 (ExoI); affinity purification with mass spectrometry; ExoI: EXOSC10-3xFlag captured on anti-Flag magnetic beads from cryomilled HEK-293 cell powder extracted in 20 mM HEPES-Na pH 7.4, 300 mM NaCl, 1% v/v Triton X-100; native elution with 3xFlag peptide; 10%-40% glycerol gradient at 4°C; SDS-PAGE and MS of peak fractions
Molecule,binding [1],binding [2],binding [3],binding [4]
EXOSC2 (from UniProt Q13868 1-293),binds,binds,,
EXOSC3 (from UniProt Q9NQT5 1-275),binds,binds,,
EXOSC1 (from UniProt Q9Y3B2 1-195),binds,binds,,
EXOSC9 (from UniProt Q06265 1-439),binds,binds,,
"MPHOSPH6 (protein, UniProt Q99547 1-160) MAAERKTRLSKNLLRMKFMQRGLDSETKKQLEEEEKKIISEEHWYLDLPELKEKESFIIEEQSFLLCEDLLYGRMSFRGFNPEVEKLMLQMNAKHKAEEVEDETVELDVSDEEMARRYETLVGTIGKKFARKRDHANYEEDENGDITPIKAKKMFLKPQD",binds,binds,,
"DIS3, Q9Y2L1 1-958 (enzyme) MLKSKTFLKKTRAGGVMKIVREHYLRDDIGCGAPGCAACGGAHEGPALEPQPQDPASSVCPQPHYLLPDTNVLLHQIDVLEDPAIRNVIVLQTVLQEVRNRSAPVYKRIRDVTNNQEKHFYTFTNEHHRETYVEQEQGENANDRNDRAIRVAAKWYNEHLKKMSADNQLQVIFITNDRRNKEKAIEEGIPAFTCEEYVKSLTANPELIDRLACLSEEGNEIESGKIIFSEHLPLSKLQQGIKSGTYLQGTFRASRENYLEATVWIHGDNEENKEIILQGLKHLNRAVHEDIVAVELLPKSQWVAPSSVVLHDEGQNEEDVEKEEETERMLKTAVSEKMLKPTGRVVGIIKRNWRPYCGMLSKSDIKESRRHLFTPADKRIPRIRIETRQASTLEGRRIIVAIDGWPRNSRYPNGHFVRNLGDVGEKETETEVLLLEHDVPHQPFSQAVLSFLPKMPWSITEKDMKNREDLRHLCICSVDPPGCTDIDDALHCRELENGNLEVGVHIADVSHFIRPGNALDQESARRGTTVYLCEKRIDMVPELLSSNLCSLKCDVDRLAFSCIWEMNHNAEILKTKFTKSVINSKASLTYAEAQLRIDSANMNDDITTSLRGLNKLAKILKKRRIEKGALTLSSPEVRFHMDSETHDPIDLQTKELRETNSMVEEFMLLANISVAKKIHEEFSEHALLRKHPAPPPSNYEILVKAARSRNLEIKTDTAKSLAESLDQAESPTFPYLNTLLRILATRCMMQAVYFCSGMDNDFHHYGLASPIYTHFTSPIRRYADVIVHRLLAVAIGADCTYPELTDKHKLADICKNLNFRHKMAQYAQRASVAFHTQLFFKSKGIVSEEAYILFVRKNAIVVLIPKYGLEGTVFFEEKDKPNPQLIYDDEIPSLKIEDTVFHVFDKVKVKIMLDSSNLQHQKIRMSLVEPQIPGISIPTDTSNMDLNGPKKKKMKLGK",,,binds,

# The next lines start with the values.
binding [1],binding [2],binding [3],binding [4],Molecule
binds,binds,,,EXOSC7 (from UniProt Q15024 1-291)
binds,binds,,,EXOSC5 (from UniProt Q9NQT4 1-235)
binds,binds,,,EXOSC6 (from UniProt Q5RKV6 1-272)
,,,no binding,"DIS3 (enzyme, UniProt Q9Y2L1 1-958) MLKSKTFLKKTRAGGVMKIVREHYLRDDIGCGAPGCAACGGAHEGPALEPQPQDPASSVCPQPHYLLPDTNVLLHQIDVLEDPAIRNVIVLQTVLQEVRNRSAPVYKRIRDVTNNQEKHFYTFTNEHHRETYVEQEQGENANDRNDRAIRVAAKWYNEHLKKMSADNQLQVIFITNDRRNKEKAIEEGIPAFTCEEYVKSLTANPELIDRLACLSEEGNEIESGKIIFSEHLPLSKLQQGIKSGTYLQGTFRASRENYLEATVWIHGDNEENKEIILQGLKHLNRAVHEDIVAVELLPKSQWVAPSSVVLHDEGQNEEDVEKEEETERMLKTAVSEKMLKPTGRVVGIIKRNWRPYCGMLSKSDIKESRRHLFTPADKRIPRIRIETRQASTLEGRRIIVAIDGWPRNSRYPNGHFVRNLGDVGEKETETEVLLLEHDVPHQPFSQAVLSFLPKMPWSITEKDMKNREDLRHLCICSVDPPGCTDIDDALHCRELENGNLEVGVHIADVSHFIRPGNALDQESARRGTTVYLCEKRIDMVPELLSSNLCSLKCDVDRLAFSCIWEMNHNAEILKTKFTKSVINSKASLTYAEAQLRIDSANMNDDITTSLRGLNKLAKILKKRRIEKGALTLSSPEVRFHMDSETHDPIDLQTKELRETNSMVEEFMLLANISVAKKIHEEFSEHALLRKHPAPPPSNYEILVKAARSRNLEIKTDTAKSLAESLDQAESPTFPYLNTLLRILATRCMMQAVYFCSGMDNDFHHYGLASPIYTHFTSPIRRYADVIVHRLLAVAIGADCTYPELTDKHKLADICKNLNFRHKMAQYAQRASVAFHTQLFFKSKGIVSEEAYILFVRKNAIVVLIPKYGLEGTVFFEEKDKPNPQLIYDDEIPSLKIEDTVFHVFDKVKVKIMLDSSNLQHQKIRMSLVEPQIPGISIPTDTSNMDLNGPKKKKMKLGK"
binds,binds,,,"C1D (protein, UniProt Q13901 1-141) MAGEEINEDYPVEIHEYLSAFENSIGAVDEMLKTMMSVSRNELLQKLDPLEQAKVDLVSAYTLNSMFWVYLATQGVNPKEHPVKQELERIRVYMNRVKEITDKKKAGKLDRGAASRFVKNALWEPKSKNASKVANKGKSKS"
